From patent CN111171150A
Results are given in words; binding and its absence hold for the method and conditions named. Some results given as binding are weak or reduced against the parent protein; the word gives no strength.

Target: mfTSLP (cynomolgus monkey (Macaca fascicularis))
Experiment: phage-displayed scFv library panned on solid-phase TSLP1-m-his; binding test not described

binding: binds
B1: S2B1 (单链抗体, scFv clone) (scFv, V domains shown)
VH: EVKLQQSGAELVRPGSSVKISCKASGYAFSNYWMNWVKQRPGQGLEWIGQIFPGDGDTDYNGKFKGKATLTADKSSSTAYMQLSSLTSEDSAVYFCARAGYYRGYYAMDYWGQGTSVTVSA
VL: EIVLTQSPALMAASPGEKVTITCSVSSSISSSNLHWYQQKSETSPKPWIYGTSNLASGVPVRFSGSGSGTSYSLTISSMEAEDAATYYCQQWSSYPLTFGAGTKLEIK
